Reference: patent publication US6841533B1 (Peptor Limited, priority 1995, dated 2005)

Test: general procedure: Fmoc solid-phase peptide synthesis; Tenta-Gel resin (0.22 mmol/g)
Settings: whole synthesis, analytical HPLC and capillary electrophoresis, scale of the general procedure 1 g resin, MPS 1-5 μmole per well, cyclic, sequence written open

Substance: Trp-Arg-Lys-(D)Arg-Phe-AlaC3-Leu-Arg-(D)Tyr-AlaN3-NH2
- final HPLC purity: 100% purity
